Assay results: US20230130925A1 (priority 2020, published 2023)
For at least one compound, name, drawing or mass did not settle the structure.

What was measured:
SARS-cov2 = details: human, in vivo, po
Influenza A = details: human, in vivo, po

Q: What does the source list for `Cc1nc(Nc2ncc(C(=O)Nc3c(C)cccc3Cl)s2)cc(N2CCN(CCO)CC2)n1` [Dasatinib]?
A: clinical course (SARS-cov2): stabilization; need for supplemental oxygen (SARS-cov2): does not require supplementation oxygen; oxygen requirement (SARS-cov2): stabilization of oxygen requirement; oxygen requirement (Influenza A): stabilization of oxygen requirement
